# Source: paper PMC12393827
# Sequences of proteins named here, by UniProt entry; tags and fusion partners are left off.
# UniProt Q13136: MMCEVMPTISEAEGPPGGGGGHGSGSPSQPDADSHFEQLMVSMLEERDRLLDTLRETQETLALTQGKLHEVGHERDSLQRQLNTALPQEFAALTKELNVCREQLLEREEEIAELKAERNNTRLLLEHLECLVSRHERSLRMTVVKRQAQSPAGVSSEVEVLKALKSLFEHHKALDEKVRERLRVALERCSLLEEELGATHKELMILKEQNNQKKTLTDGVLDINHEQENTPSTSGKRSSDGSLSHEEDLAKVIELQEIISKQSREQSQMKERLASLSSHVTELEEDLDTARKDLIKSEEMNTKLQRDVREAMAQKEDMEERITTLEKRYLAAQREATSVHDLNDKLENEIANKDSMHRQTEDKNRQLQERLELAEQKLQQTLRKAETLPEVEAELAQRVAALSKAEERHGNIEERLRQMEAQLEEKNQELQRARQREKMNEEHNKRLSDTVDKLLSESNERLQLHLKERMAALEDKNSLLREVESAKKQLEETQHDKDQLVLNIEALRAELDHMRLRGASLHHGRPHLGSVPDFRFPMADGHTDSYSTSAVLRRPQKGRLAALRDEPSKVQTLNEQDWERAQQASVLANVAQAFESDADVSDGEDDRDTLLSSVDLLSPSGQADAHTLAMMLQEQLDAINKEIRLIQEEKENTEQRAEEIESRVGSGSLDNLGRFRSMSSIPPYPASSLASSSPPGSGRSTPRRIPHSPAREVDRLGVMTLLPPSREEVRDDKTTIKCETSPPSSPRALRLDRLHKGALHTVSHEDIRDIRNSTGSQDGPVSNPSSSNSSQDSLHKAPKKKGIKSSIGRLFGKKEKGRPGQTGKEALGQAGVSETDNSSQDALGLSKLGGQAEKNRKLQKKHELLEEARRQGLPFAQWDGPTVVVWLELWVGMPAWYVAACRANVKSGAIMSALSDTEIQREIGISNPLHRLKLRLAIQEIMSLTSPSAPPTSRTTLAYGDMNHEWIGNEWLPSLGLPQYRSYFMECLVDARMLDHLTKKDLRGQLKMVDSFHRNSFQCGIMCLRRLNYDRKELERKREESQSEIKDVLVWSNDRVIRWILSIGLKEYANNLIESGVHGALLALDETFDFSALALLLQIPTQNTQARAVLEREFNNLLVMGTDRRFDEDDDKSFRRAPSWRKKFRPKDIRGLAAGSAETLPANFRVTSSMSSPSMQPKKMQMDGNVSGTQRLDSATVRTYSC
# UniProt B2RXQ2: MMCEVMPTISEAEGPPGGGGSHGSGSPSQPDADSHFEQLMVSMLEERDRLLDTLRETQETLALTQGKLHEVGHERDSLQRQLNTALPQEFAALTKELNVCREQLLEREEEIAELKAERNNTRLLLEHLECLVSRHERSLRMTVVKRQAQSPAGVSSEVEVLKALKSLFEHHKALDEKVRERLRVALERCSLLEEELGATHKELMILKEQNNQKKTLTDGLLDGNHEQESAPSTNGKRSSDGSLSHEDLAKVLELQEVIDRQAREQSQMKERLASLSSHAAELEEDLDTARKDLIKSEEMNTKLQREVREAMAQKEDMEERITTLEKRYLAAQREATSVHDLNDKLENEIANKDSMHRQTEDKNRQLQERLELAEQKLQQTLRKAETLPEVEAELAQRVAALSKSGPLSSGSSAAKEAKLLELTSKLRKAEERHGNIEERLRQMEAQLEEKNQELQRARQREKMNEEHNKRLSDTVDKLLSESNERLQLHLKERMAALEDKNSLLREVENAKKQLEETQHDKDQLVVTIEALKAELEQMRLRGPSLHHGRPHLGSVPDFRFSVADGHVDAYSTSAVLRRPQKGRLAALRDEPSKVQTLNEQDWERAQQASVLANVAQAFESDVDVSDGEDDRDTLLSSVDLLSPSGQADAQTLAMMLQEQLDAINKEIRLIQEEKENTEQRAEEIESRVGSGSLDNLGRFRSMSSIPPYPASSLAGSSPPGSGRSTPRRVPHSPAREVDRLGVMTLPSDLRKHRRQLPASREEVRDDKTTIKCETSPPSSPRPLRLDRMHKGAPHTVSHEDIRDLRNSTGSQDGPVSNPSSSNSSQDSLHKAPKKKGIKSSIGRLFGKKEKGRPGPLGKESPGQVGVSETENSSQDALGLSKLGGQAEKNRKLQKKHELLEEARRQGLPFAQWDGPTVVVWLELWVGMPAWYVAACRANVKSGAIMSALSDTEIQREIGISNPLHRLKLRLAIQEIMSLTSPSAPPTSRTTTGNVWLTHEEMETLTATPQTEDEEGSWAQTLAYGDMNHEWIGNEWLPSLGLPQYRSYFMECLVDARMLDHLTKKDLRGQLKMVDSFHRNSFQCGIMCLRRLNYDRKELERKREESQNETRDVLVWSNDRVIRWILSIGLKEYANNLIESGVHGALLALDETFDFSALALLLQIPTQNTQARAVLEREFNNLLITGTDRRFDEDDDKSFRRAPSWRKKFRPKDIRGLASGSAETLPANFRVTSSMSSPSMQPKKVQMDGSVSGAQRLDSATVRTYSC
# These are yes or no findings as the source states them, for the method shown. In cells and extracts the contact can be indirect. Some binding calls cover weakened binding; strength is not graded here.
# Tests used:
# [1] = biological target: GFP–liprin-α1 (not stated (human or mouse cDNA cloned)) (UniProt Q13136); experiment: co-IP; lysates of MIN6 cells overexpressing GFP–liprin-α1 or GFP (control); anti-GFP nanobody beads (GFP-Trap); immunoprecipitates analysed by immunoblotting
# [2] = biological target: endogenous liprin-α1 (mouse (endogenous in MIN6)) (UniProt B2RXQ2); experiment: co-IP; uninfected MIN6 cells, 16.7 mM glucose 2 h; clarified lysates (4 mg per IP) with 10 μg anti–liprin-α1, anti–β2-syntrophin or control IgG overnight at 4°C, protein A/G magnetic beads; immunoblotting
binding [1],binding [2],Molecule
binds,,endogenous liprin-α1 (from UniProt B2RXQ2 1-1266)
binds,binds,"liprin-β1 (protein, UniProt Q8C8U0 1-969) MMSDASDMLAAALEQMDGIIAGSKALEYSNGIFDCQSPTSPFMGSLRALHLVEDLRGLLEMMETDEKEGLRCQIPDSTAEVLIEWLQNQMTNGHLPGNGDVYQERLARLENDKESLVLQVSVLTDQVEAQGEKIRDLEFCLEEHREKLNATEEMLQQELLSRTSLETQKLELMAEISNLKLKLTAVEKDRLDYEDRFRDTEGLIQEINDLRLKVNEMDGERLQYEKKLKSTKDELASLKEQLEEKECEVKRLQERLVCKAKGEGIEVLDRDIEVQKMKKAVESLMAANEEKERKIEDLRQCLSRYRKMQDPAVLAQGQDSECEGLFHSSSISTLLDAQGFSDLERSTSSTPGMGSPSRDLLHTSAPEEFHTSVLQASIPSLLPPSVDVDTCEKPKLPTKPETSFEEGDGRAILGAAAEVSLSDGVSTSSLQKSSSLGNLKKEASDGTDKAPTDSRTFGTLPPKVPGHEASVDDNPFGTRKARSSFGRGFFKIKSGKRTASAPNLAETEKETAEHLNLAGTSRSKGSQGTSPFPMSPPSPDSRKKSRGIMRLFGKLRRSQSTTFNPDDMSEPEFKRGGTRATAGPRLGWSRDLGQSNSDLDMPFAKWTKEQVCSWLAEQGLGSYLSSGKHWIISGQTLLQASQQDLEKELGIKHSLHRKKLQLALQALGSEEETNYGKLDFNWVTRWLDDIGLPQYKTQFDEGRVDGRMLHYMTVDDLLSLKVVSVLHHLSIKRAIQVLRINNFEPNCLRRRPSDENSITPSEVQQWTNHRVMEWLRSVDLAEYAPNLRGSGVHGGLMVLEPRFNVETMAQLLNIPPNKTLLRRHLATHFNLLIGAEAQHQKRDAMELPDYVLLTATAKVKPKKLTFSNFGNLRKKKHEDGEEYVCPMELGQASGSSQKGFRPGLDMRLYEEDDLDRLEQMEDSEGTVRQIGAFSEGINNLTHMLKEDDMFKDFAARSPSASITDEDSNV"
